From PMC5552905, “Mechanisms of peptide sex pheromone regulation of conjugation in Enterococcus faecalis” (MicrobiologyOpen, 2017)
The exact form of at least one protein or probe is not confirmed. At least one verdict was read from the data and is not stated in words by the source. Protein sequences can lack the tags named with them.

Target: T1, PrgX (Enterococcus faecalis (plasmid pCF10)) (UniProt Q04114)
T1 sequence (looked up, limits assumed): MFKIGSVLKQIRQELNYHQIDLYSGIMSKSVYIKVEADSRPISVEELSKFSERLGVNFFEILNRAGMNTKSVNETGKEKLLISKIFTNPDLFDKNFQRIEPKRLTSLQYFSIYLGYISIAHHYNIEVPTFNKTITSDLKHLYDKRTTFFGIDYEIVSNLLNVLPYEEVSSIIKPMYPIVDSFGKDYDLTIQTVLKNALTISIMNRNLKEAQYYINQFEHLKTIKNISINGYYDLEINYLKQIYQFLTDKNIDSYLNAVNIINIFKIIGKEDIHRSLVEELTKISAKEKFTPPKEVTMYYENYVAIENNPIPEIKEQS
Experiment: EMSA
Conditions: cCF10 (C), virtually identical to I; EMSA: 20 mM Tris-HCl pH 7.9, 0.1 M NaCl, 0.1 mM EDTA, 10% glycerol, 10 mM MgCl2, 1 ug poly-[d(A-T)], 0.1 ug poly-L-lysine, 20 ul, room temperature 15 min; recombinant protein; label: 3' DIG-11-ddUTP

TGTTAATATTTTAATTTTAGGTATTGAATACGACACTCGAAGATGTGTTTATTAAGCTATATCCCTTTTTTTTAAAAAAAAATA (double strand) [XBS1 DNA]
binding result: binds
